Test system: hippocampal theta oscillations
Assay: Theta modulation in dorsal hippocampus of anesthetized rats in combination with donepezil
Assay type: in vivo, Male Wistar rats
Details: anesthetized rat, donepezil alone 0.3 mg/kg, i.v.
Text: Evaluation of Theta Modulation in Dorsal Hippocampus of Anesthetized Male Wistar
Male Wistar rats (240-320 g) were anesthetized by Intraperitoneal administration of urethane (1.2 to 1.5 g/kg) for implantation of a catheter in the left femoral vein. The animal was placed in a stereotaxic frame for implanting an electrode (stainless steel wire, Plastics One) into the dorsal hippocampus (AP: −3.8 mm; ML: +2.2 mm; DV: −2.5 mm; Paxinos and Watson, 2004). Bipolar stimulating electrode (untwisted stainless steel wires, separated by 0.75-1.0 mm at their tips, Plastics One) was implanted in the Nucleus Pontis Oralis (NPO; AP: −7.8 mm; ML: 1.8 mm; DV: −6.0 mm; Paxinos and Watson, 2004). Additionally one electrode was implanted into the cerebellum which served as a reference. Hippocampal θ rhythm was evoked via a 6-s electrical stimulation train (20-160 μA, 0.3-ms pulse duration, 250 Hz) delivered to the NPO at a rate of 0.01 trains/s with a Grass S88 stimulator and PSIU6 stimulus isolation unit (Grass Medical Instruments, Quincy, Mass.). EEG was recorded at a rate of 1000 Hz using Ponemah (Version 5.2) software and stored for off-line analysis using NeuroScore (Version 3.0). […]
Power in the θ rhythm frequency in the stimulation period during the 30-min baseline period was calculated and the % changes in these measures post treatment were calculated. […]

## COc1cc2c(cc1OC)C(=O)C(CC1CCN(Cc3ccccc3)CC1)C2 (stereo not shown) [donepezil, reference compound]
  hippocampal θ power: moderate increase

Reference: patent publication US11234979B2, “Heteroaryl compounds as muscarinic M1 receptor positive allosteric modulators” (SUVEN LIFE SCIENCES LIMITED, priority 2017, dated 2022)
